Measurements from “University of Dundee, Small-Polar-MMV Screening Library” (2021), ChEMBL document CHEMBL3988442.

By UniProt entry, the sequences of proteins in these tests, tags left out.
UniProt P9WPC5, whole entry: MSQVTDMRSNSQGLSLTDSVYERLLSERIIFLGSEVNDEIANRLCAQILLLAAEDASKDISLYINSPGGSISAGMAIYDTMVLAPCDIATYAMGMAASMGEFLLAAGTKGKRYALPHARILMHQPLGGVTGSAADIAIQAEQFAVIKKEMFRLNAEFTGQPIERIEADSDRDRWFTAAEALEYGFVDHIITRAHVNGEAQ
UniProt P9WPC3, whole entry partner: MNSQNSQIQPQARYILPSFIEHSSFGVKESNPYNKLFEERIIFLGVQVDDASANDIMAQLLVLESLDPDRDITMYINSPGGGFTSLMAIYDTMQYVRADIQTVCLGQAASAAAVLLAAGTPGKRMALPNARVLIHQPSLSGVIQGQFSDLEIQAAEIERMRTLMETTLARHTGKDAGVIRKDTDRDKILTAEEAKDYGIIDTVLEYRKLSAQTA

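ClpP1P2, Mycobacterium tuberculosis (UniProt P9WPC5 and UniProt P9WPC3). Protease assay of ClpP1P2, read by the AMC dye that it sets free. Tested at 50 µM. Higher reads as stronger inhibition, judged from the few compounds that gave an IC50. Most other retested compounds had strongly negative values. Of about 69,000 compounds tested this way, about 10 (0.015%) reached 50% or more in at least one test.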

Values are the deposited “Percent Effect”, in %.
How 0% and 100% were set is not recorded. Most values in the screen are low, and negative values occur.
The compounds are a random part of those screened.

- CS(=O)(=O)NC[C@@H]1OC[C@H]2CN(C(=O)c3ccccn3)CC[C@H]21 | 2.54%
- COc1nc2c(cc1C(=O)NCCCc1nnc(N)s1)CCC2 | -8.409%
- Cc1csc(CCNc2ccc(C#N)cc2F)n1 | 3.663%
- CCOCC(O)CN1CCN(C(=O)c2cccc(CC#N)c2)CC1 (stereo not drawn) | -15.62%
- Cc1c(CN2C[C@@H](O)[C@H](Oc3cccc(F)c3)C2)cnn1C | 5.798%
- N#Cc1cccnc1N1CCCC(CO)(Cc2ccc(F)cc2)C1 (stereo not drawn) | -2.009%
- CN1CCC(N(Cc2ccncc2)C(=O)COCC2CCCCO2)CC1 (stereo not drawn) | -9.367%
- N[C@@H](Cc1ccccc1)c1nnc(S(=O)(=O)Cc2cccc(Cl)c2)o1 | -4.2%
- CC1CCN(c2ncc(C#N)c(N)n2)CC1 | -8.948%
- CN(Cc1nc(Cc2cccc(C(F)(F)F)c2)no1)CC1CCCCO1 (stereo not drawn) | -11.45%
- NC(=O)NC(=O)CCN1CCC(C(=O)c2cc(F)ccc2F)CC1 | -22.58%
- Cc1ccnc(NS(=O)(=O)c2cc(C(N)=O)n(C)c2)c1 | -14.91%
- Cc1ccc(N2C[C@@H]3CCCO[C@@H]3[C@H](N3CCCC3)C2)nn1 | 1.598%
- CCn1c(CN2CCCC2)nnc1C1CCN(Cc2ccncc2)CC1 | -4.127%
- COc1cccc(OC2CN(C(=O)c3cc(CC(C)C)nn3C)C2)c1 | -10.6%
- Cc1noc(-c2ccnc(N3CCCN(C4CCOCC4)CC3)c2)n1 | -14.98%
- Cc1nc(O)c2nnn(C[C@H]3CCCN3C(=O)c3ccccc3C)c2n1 | 1.916%
- Cc1nnc(N2CCOC(C)(C(=O)N(C)C)C2)c2ccccc12 (stereo not drawn) | -3.014%
- O=C(Nc1cc(C(F)(F)F)c[nH]c1=O)C1CCCNC1 (stereo not drawn) | -5.178%
- Cc1nn(C)c(N(C)C)c1CNCCOc1ccc2c(c1)OCO2 | -37.22%
- CC(C)CN1CCN(Cc2nc3c(s2)CCCC3)[C@H]2CS(=O)(=O)C[C@H]21 | -0.9802%
- Cc1cc(C(=O)N2CCC(c3nccn3Cc3ccccn3)CC2)no1 | -6.628%
- c1cnn(CCNCc2csc(-c3ccc4c(c3)OCO4)n2)c1 | -2.134%
- c1ccc(Cn2ccnc2CNC2CCCOc3ccccc32)cc1 (stereo not drawn) | -2.971%
- COCc1nnc(C(=O)N2CCC(N3CCCCC3)CC2)o1 | 8.184%
- Fc1ccccc1OCCc1cc(C2CNCCO2)n[nH]1 (stereo not drawn) | -1.273%
- Cc1ccsc1C(=O)N1CCc2ncc(Cn3cccn3)n2CC1 | 2.207%
- CC(C)CNC(=O)CN(C)S(C)(=O)=O | -2.763%
- CC(C)CN1Cc2nc(N3CCCC3)ncc2C1=O | -9.577%
- Cc1noc(C2CCCN(C(=O)c3scnc3Cl)C2)n1 (stereo not drawn) | 4.456%
- CN1CCCN(c2nccc(-c3c[nH]nc3C3CCCCC3)n2)CC1 | 1.54%
- Cc1nc(N2CCN(C)CC2)ncc1C(=O)N1CCC(O)(CO)CC1 | -12.59%
- NC(=O)CN1CCC(NC(=O)N2CCCC2c2ccsc2)CC1 (stereo not drawn) | 10.49%
- COCCN1CCCC1c1cccc2c1OCCO2 (stereo not drawn) | -6.558%
- Cc1ncc(CN2CCCC(c3cc(C(N)=O)[nH]n3)C2)s1 (stereo not drawn) | -9.31%
- Cc1nn(C)cc1CN1CCCC(n2c(=O)oc3ccccc32)C1 (stereo not drawn) | -22.19%
- CC(C)c1nc(CN(C)C(=O)CCS(=O)(=O)c2ccccc2)no1 | 2.456%
- c1cc(COC[C@]23COC[C@H]2CN(Cc2ccsc2)C3)ccn1 | 4.108%
- Cc1nc(NCCSc2nnc(C)s2)c2cccnc2n1 | 3.113%
- CC(C)Oc1ncnc2c1CCN(Cc1ccco1)CC2 | -9.516%
- O=C(c1cccnc1-n1cncn1)N1CCN(CC2CC2)CC1 | -2.171%
- Cn1ccc2ccnc(CC3CN(C(=O)c4cscn4)C3)c21 | -3.087%
- Cc1ccc(Oc2ncccc2C(=O)N(C)CCCN(C)C)cc1 | -9.157%
- CN1N=C(C(=O)N2CCCCC2)S(=O)(=O)c2ccccc21 | -1.605%
- CS(=O)(=O)Cc1ccc(CNC(=O)c2cccnc2O)cc1 | 11.91%
- CC(NC(=O)Nc1ccc(S(C)(=O)=O)cc1)c1ccc2c(c1)CC(=O)N2 (stereo not drawn) | 1.326%
- Cc1ncc2c(n1)CN(CC(=O)Nc1nncs1)CC2 | -2.108%
- O=C(NC1CCCCC1)N1CCc2onc(COc3cccnc3)c2C1 | -2.198%
- COCCNc1ccc(CNC(=O)C2COc3ccccc32)cc1 (stereo not drawn) | -7.041%
- Cc1nccn1C1CCCN(C(=O)c2ccc(N(C)C)nn2)C1 (stereo not drawn) | -35.01%
- O=C(CCc1cc2n(n1)CCCNC2)N1CCC(N2CCOC2=O)CC1 | -7.589%

The last 6 entries again:

structure,Percent Effect
CC(NC(=O)Nc1ccc(S(C)(=O)=O)cc1)c1ccc2c(c1)CC(=O)N2 (stereo not drawn),1.326%
Cc1ncc2c(n1)CN(CC(=O)Nc1nncs1)CC2,-2.108%
O=C(NC1CCCCC1)N1CCc2onc(COc3cccnc3)c2C1,-2.198%
COCCNc1ccc(CNC(=O)C2COc3ccccc32)cc1 (stereo not drawn),-7.041%
Cc1nccn1C1CCCN(C(=O)c2ccc(N(C)C)nn2)C1 (stereo not drawn),-35.01%
O=C(CCc1cc2n(n1)CCCNC2)N1CCC(N2CCOC2=O)CC1,-7.589%